Assay results as given in the supplement of paper PMC12823440, “Inhibitors supercharge kinase turnover through native proteolytic circuits” (Nature, 2025).
The other results are listed elsewhere or left out. Hit calls seldom repeat between salt and free forms of one compound.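 Kinases were expressed as nanoluciferase fusions in K562 cells and luminescence was read every 4 h between 2 and 18 h as percent of control, DMSO set to 100% and a positive control to 0%. A time point counts as decreased when the signal drops significantly (2 sigma). The hit call is the authors' own, does not follow from the count of time points alone, and its rule is not shown.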

Protein sequences, listed by entry. Tags and fused reporters are not part of them.
UniProt P21860, whole entry: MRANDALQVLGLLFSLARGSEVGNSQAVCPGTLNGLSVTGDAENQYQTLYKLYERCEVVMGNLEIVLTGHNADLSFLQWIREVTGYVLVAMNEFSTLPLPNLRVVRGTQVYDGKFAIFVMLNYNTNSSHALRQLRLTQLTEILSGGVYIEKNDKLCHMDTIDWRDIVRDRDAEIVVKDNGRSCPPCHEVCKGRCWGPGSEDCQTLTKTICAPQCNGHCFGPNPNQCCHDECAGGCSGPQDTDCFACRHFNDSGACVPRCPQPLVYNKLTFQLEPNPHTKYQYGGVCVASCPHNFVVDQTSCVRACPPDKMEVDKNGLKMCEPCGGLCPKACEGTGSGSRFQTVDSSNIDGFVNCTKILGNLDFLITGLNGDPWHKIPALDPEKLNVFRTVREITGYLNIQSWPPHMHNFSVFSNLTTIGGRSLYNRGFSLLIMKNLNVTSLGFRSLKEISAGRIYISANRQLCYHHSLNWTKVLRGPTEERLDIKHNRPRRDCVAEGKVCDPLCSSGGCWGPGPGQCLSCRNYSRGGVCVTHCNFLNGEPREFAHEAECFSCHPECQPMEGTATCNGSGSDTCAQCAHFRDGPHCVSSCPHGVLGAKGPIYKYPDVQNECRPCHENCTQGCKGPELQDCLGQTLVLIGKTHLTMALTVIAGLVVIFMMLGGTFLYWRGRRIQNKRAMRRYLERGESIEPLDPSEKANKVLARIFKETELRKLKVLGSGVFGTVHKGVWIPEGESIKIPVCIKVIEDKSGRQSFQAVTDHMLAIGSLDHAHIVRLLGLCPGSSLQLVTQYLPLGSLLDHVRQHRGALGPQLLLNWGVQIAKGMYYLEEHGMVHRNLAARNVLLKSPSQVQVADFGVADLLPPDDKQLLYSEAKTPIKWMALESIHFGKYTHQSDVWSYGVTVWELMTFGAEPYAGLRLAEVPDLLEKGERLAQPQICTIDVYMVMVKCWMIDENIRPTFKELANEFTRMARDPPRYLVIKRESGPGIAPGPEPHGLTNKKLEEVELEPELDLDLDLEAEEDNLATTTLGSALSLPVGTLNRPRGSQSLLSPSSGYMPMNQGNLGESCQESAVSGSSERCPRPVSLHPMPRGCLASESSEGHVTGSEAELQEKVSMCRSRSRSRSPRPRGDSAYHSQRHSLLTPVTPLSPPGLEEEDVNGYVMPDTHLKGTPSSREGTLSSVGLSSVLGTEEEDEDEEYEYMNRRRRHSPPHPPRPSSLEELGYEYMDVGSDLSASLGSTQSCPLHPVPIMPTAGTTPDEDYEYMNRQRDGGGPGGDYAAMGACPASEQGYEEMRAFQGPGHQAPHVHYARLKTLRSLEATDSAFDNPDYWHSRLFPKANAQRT

Molecular target: ERBB3 (UniProt P21860)
Assay: kinase-Nluc reporter destabilization hit call (1 = scored as downregulated) (binary); higher = compound decreases kinase abundance
Conditions: K562; 2-18 h

kinase-Nluc reporter destabilization hit call, inactive:
Cc1c(C(=O)N2CCOc3ccc(-c4ccc(N)nc4)cc3C2)ccc(S(C)(=O)=O)c1F (10 µM) 0, Cc1ccc(NC(=O)Nc2nnc(Sc3ncnc4cc(OCCCN5CCOCC5)ccc34)s2)cc1 (10 µM) 0, N#CC(=Cc1ccc(O)c(O)c1)C(=O)NCc1ccccc1 (mixture of isomers) (10 µM) 0, COc1ccc(COc2ccc(Cc3cnc(N)nc3N)cc2OC)cc1 (10 µM) 0, CC(=O)N1CCN(c2ccc(OCC3COC(Cn4ccnc4)(c4ccc(Cl)cc4Cl)O3)cc2)CC1 (configuration not stated) [Ketoconazole] (2.5 µM) 0, Cc1ccc(F)c(NC(=O)Nc2ccc(-c3cccc4[nH]nc(N)c34)cc2)c1 [Linifanib] (2.5 µM) 0, NC(=O)c1ccc2nc(-c3ccc(Oc4ccc(Cl)cc4)cc3)[nH]c2c1 (10 µM) 0, CNc1nc(-c2ccc3c(N)n[nH]c3c2)cc(N2C[C@@H](C(=O)NC3CCCCC3)CC[C@H]2C)n1 (10 µM) 0, Cc1nc(N)sc1-c1ccnc(Nc2ccc(N3CCOCC3)cc2)n1 (10 µM) 0, O=c1oc2ccccc2c(O)c1Cc1c(O)c2ccccc2oc1=O [Dicoumarol] (10 µM) 0, CCc1nc(-c2cccc(C)c2)c(-c2ccnc(NC(=O)c3ccccc3)c2)s1 (10 µM) 0, CC(C)(C)c1cc(NC(=O)Nc2ccc(-c3cn4c(n3)sc3cc(OCCN5CCOCC5)ccc34)cc2)no1 [Quizartinib] (10 µM) 0
